Measurements reported in PubChem BioAssay AID686943 (Drosophila RNAi Screening Center, 2013).
Test: 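Knockdowns that increase or decrease active ERK after insulin receptor stimulation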 (primary screen). Cell system: Drosophila S2R+ haemocyte-like cells expressing YFP-tagged ERK (Rolled). Reagent: long dsRNA against Drosophila genes. Treatment: insulin stimulation versus unstimulated cells; dose and duration not given. Read-out: 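Per-plate z-scores of phospho-ERK immunostaining normalised to YFP-tagged ERK, measured with and without insulin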. Scale: replicate 1, z-score of dpERK with insulin and replicate 2, z-score of dpERK with insulin: higher = more active ERK per ERK-YFP after insulin; replicate 1, z-score of dpERK under basal conditions: higher = more basal active ERK per ERK-YFP; replicate 1, z-score of ERK-YFP with insulin: higher = more YFP-tagged ERK signal.
The deposit covers about 23,000 reagents; this is an unselected part of those with a known target gene and a result. 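Extra replicates exist only for a retested subset of genes; insulin dose and duration not given; both raised and lowered dpERK matter.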 The numbers tell different reagents against one gene apart. Names joined by + are all predicted targets of the reagent. Not given: the amount of reagent, the time to read-out.

predicted target	reagent no.	replicate 1, z-score of dpERK with insulin	replicate 2, z-score of dpERK with insulin	replicate 1, z-score of dpERK under basal conditions	replicate 1, z-score of ERK-YFP with insulin
Lrrk	1	1.08	0.58	0	-0.49
Lrrk	2	-0.04	-0.82	1.44	1.49
Sirt4	1	-0.21	0.02	-0.63	-0.21
CG18609	1	0.27	0.11	0.45	0.23
CG9328	1	1.22	-0.23	-1.83	-0.86
SecCl	1	0.06	-0.41	0.91	0.1
Gar1	1	0.56	0.66	-1.46	-0.86
U3-55K	1	0.56	0.86	0.17	0.12
Cpr92F	1	0.61	0.11	0.53	0.24
ninaC	1	0.43	-1.07	-0.78	-0.63
CG15042	1	-0.1	0.7	0.67	0.04
sei	1	-0.24	0.37	0.66	1.09
Corp	1	-0.85	0.05	-1.32	0.37
Helz	1	0.06	-0.12	0.14	-0.44
CG31436	1	1.32	0	0.49	-1.53
wge	1	-0.33	-0.22	-0.39	0.07
wge	2	0.15	-0.3	-0.38	0.54
Or82a	1	-0.34	-0.04	0.32	0.77
CG10481	1	0.49	0.81	1.27	0.65
CG33060	1	1.1	0.71	-0.95	-0.36
otk	1	-0.55	0.23	0.25	0.23
Syt14	1	-0.64	-0.22	-0.13	0.3
crc	1	-0.47	0.77	0.41	0.56
Pfk	1	0.78	0.39	0.35	-0.6
HP1e	1	-0.01	0.14	1.16	0.78
yellow-d2	1	0.18	-0.19	2.17	-0.81
CG5280	1	1.03	0.15	-0.4	-0.34
CG5280	2	-0.21	-0.72	-1.01	0.77
CG6659	1	0.27	0.46	-0.66	0.63
Targ2	1	0.06	-1.05	1.35	0.5
CG31705	1	-4.09	-4.56	1.31	1.32
spidey	1	0.28	-0.31	-0.11	1.13
CG30496	1	0.74	-0.57	1.63	-0.02
Ptp10D	1	0.41	0.2	0.02	0.07
Rs1	1	0.85	0.59	-1.41	0.45
ec	1	0.38	0.33	-0.29	-0.24
ec	2	-0.02	-0.09	1.18	-0.19
ec	3	0	1.12	-0.26	-2.25
Sas-6	1	-0.24	-0.11	-0.34	-0.27
wake	1	-0.06	-0.41	-0.5	0.08
wake	2	0.06	-0.31	-0.67	-0.12
Rbm13	1	1.38	0.18	-1.28	-0.6
P5cr-2	1	-0.31	0.28	-0.32	0.3
CG11362	1	0.4	-0.41	0.76	-0.01
CG11362	2	0.49	-0.11	-0.38	-0.39
CG12723	1	0.53	0.05	0.47	0.52
Alg1	1	0.08	-0.06	0	0.97
XRCC1	1	-0.19	0.47	-0.38	-0.42
CG13670	1	0.25	-0.35	0.86	0.2
mRpS23	1	0.51	0.11	-0.41	0.47
CG6508	1	0.45	0.26	0.5	-0.34
Fkbp59	1	-1.15	-1.02	-0.67	0.28
CG17636	1	-0.17	0.14	-0.24	0.5
Gss1 + Gss2	1	0.43	0.05	0.12	-0.21
Gss1 + Gss2	2	0.42	1.02	-0.26	0.31
CG2121	1	0.62	-0.02	0.34	-0.04
CG2121	2	1.25	0.79	-0.19	-0.12
CG13930	1	-0.24	0.03	0.07	0.39
TTLL1B	1	0.31	0.67	-0.06	0.54
CG12910	1	0.86	0.31	-0.56	0.23
shd	1	-0.77	-0.24	1.33	0.56
CG5890	1	-1.71	-0.1	-1.11	0.72
CG12605	1	2.07	1.52	0.62	0.58
CG13385	1	-0.1	0.62	0.49	-0.03
CG31097	1	1.34	0.04	0.34	-0.19
CG13566	1	-0.38	-1.74	-1.53	-0.19
CG6770	1	-5.6	-4.94	-1	-2.17
CG3285	1	-0.13	1.1	-1.62	-0.73
CG12831	1	0.62	-0.37	-0.17	-0.57
Adk2	1	-0.3	0.06	-0.03	0.05
pho	1	-0.33	-0.17	0.47	0.55
vls	1	-0.75	-0.51	1	0.67
CG14110	1	-0.21	0.3	-1.45	0.39

Individual results from the list.
Or82a, replicate 1, z-score of dpERK with insulin: -0.34
For “replicate 1, z-score of dpERK under basal conditions”, XRCC1 is entered as -0.38
SecCl, replicate 1, z-score of dpERK with insulin: 0.06
For “replicate 2, z-score of dpERK with insulin”, Gss1 + Gss2 #2 is entered as 1.02
Result for CG5280 #2 in “replicate 1, z-score of dpERK with insulin”: -0.21
Pfk, replicate 1, z-score of dpERK with insulin → 0.78
